{"source": "PubChem BioAssay AID504467", "about": "(National Center for Advancing Translational Sciences (NCATS), 2011)", "note": "The campaign covered roughly 330,000 compounds. About 7,700 (2.3%) were called active. The inconclusive results got no clear call from the source; some entries with a clear call stand among them for comparison. Calls follow the shape of the dose curve; as a rule, active = well fitted inhibition curve with a large enough effect; inconclusive = small, poorly fitted or top-dose-only effect, or effect the other way; inactive = flat fitted curve, though single readings scatter. Potencies of inconclusive entries are doubtful fits and often do not repeat. Potency is read from the fitted curve at half-maximal effect."}
{"experiment": "qHTS screen for small molecules that inhibit ELG1-dependent DNA repair in human embryonic kidney (HEK293T) cells expressing luciferase-tagged ELG1; also: nearly all actives have a fitted effect of over 55% in size", "conditions": "HEK293T ELG1-luciferase reporter, luminescence, 16 h, DNA damage induced by 5-fluorouridine; series mostly up to 46.1 µM", "procedure,_shortened": "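Step one: seed 2,000 cells per well. Step two: pin-transfer compound or DMSO alongside 5-fluorouridine. Step three: incubate 16 hr, 37 °C, 5% CO2. Step four: add ONE-Glo, wait 30 min, read luminescence.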"}
{"smiles": "Cc1cc(CNC(=O)c2cccc([N+](=O)[O-])c2)c2ccccc2n1", "Potency": "inconclusive: 14.6 µM [inhibitor, partial curve, poor fit]"}
{"smiles": "NNc1nc(-c2ccccc2)cc(-c2ccccc2O)n1", "Potency": "inactive"}
{"smiles": "COc1cc(/C=C(/C#N)c2nc3ccccc3[nH]2)ccc1Oc1ncccc1[N+](=O)[O-]", "Potency": "inconclusive: 32.6 µM [activator, single point]"}
{"smiles": "O=C(NCc1cccnc1)c1cccc(NS(=O)(=O)c2ccc(Br)cc2)c1", "Potency": "inconclusive: 2.06 µM [inhibitor, full curve, poor fit]"}
{"smiles": "Cc1c(C(=O)Nc2cccnc2Cl)oc2ccccc12", "Potency": "inconclusive: 8.2 µM [activator, partial curve]"}
{"smiles": "O=C(CSCC(=O)N1CCOCC1)Nc1nc(-c2ccccc2)cs1", "Potency": "inconclusive: 14.6 µM [activator, partial curve]"}
{"smiles": "Oc1ccc(C[C@H]2CNCCN2CC2(c3ccccc3)CC2)cc1", "Potency": "inactive"}
{"smiles": "CCCCOC(=O)c1ccc(NC(=S)NC(=O)c2c(Cl)cnn2CC)cc1", "Potency": "inactive"}
{"smiles": "O=[N+]([O-])c1ccc(/C=N/NC(=S)Nc2ccccc2F)o1", "Potency": "inconclusive: 9.2 µM [activator, partial curve, poor fit]"}
{"smiles": "CCOc1cc(/C=C/c2nc3ccccc3s2)ccc1OCC(=O)N1CCOCC1", "Potency": "active: 23.1 µM"}
{"smiles": "COc1ccc(-c2cc3nc(C)n(N)c(=O)c3s2)cc1", "Potency": "inconclusive: 0.0326 µM [activator, full curve, poor fit]"}
{"smiles": "CCCC(C(=O)Nc1ccc(S(=O)(=O)Nc2nccs2)cc1)c1ccccc1", "note": "(stereo not drawn)", "Potency": "inactive"}
{"smiles": "O=C(c1ccc(Cl)cc1)C(Cn1cncn1)C(Sc1ccccc1)c1ccccc1", "note": "(stereo not drawn)", "Potency": "inconclusive: 29.1 µM [inhibitor, single point]"}
{"smiles": "COc1ccc(/C=N/n2cnnc2)cc1Br", "Potency": "inconclusive: 29.1 µM [activator, single point]"}
{"smiles": "N#CNC(=Nc1ccc(Cl)cc1)Oc1ccccc1", "Potency": "inconclusive: 14.6 µM [activator, single point]"}
{"smiles": "CC(Sc1nnc2n1CCCCC2)C(=O)Nc1cccc(S(=O)(=O)N2CCOCC2)c1", "note": "(stereo not drawn)", "Potency": "inactive"}
{"smiles": "CCOC(=O)c1c(C)[nH]c(C(=O)NNC(=O)c2ccccc2F)c1C", "Potency": "inconclusive: 2.59 µM [activator, full curve]"}
{"smiles": "CCCC(=O)Nc1sc2c(c1C(=O)Nc1ccccn1)CCCC2", "Potency": "inconclusive: 18.3 µM [inhibitor, partial curve, poor fit]"}
{"smiles": "COc1ccc(C)cc1NC(=O)Nc1ccccc1", "Potency": "inactive"}
{"smiles": "CC(C)(C)n1cnc2cc(NCc3ccc(Br)cc3)ccc21", "Potency": "inconclusive: 7.3 µM [activator, partial curve]"}
{"smiles": "Cc1c(C(C)NC(=O)c2cc(COc3cccc4cnccc34)on2)cnn1C", "note": "(stereo not drawn)", "Potency": "active: 3.66 µM"}
{"smiles": "CCOc1ccccc1NC(=S)/C(=C(\\[O-])c1ccc2c(c1)OCCO2)[n+]1ccc(CC)cc1", "Potency": "inconclusive: 32.6 µM [activator, partial curve, poor fit]"}
{"smiles": "COc1ccc(-c2noc(C3CCCN(C(=O)c4ccc(F)cc4)C3)n2)cc1", "note": "(stereo not drawn)", "Potency": "inactive"}
{"smiles": "COc1ccccc1N1CCN(C(=O)CSc2nc(-c3ccco3)cc(C(F)(F)F)n2)CC1", "Potency": "inconclusive: 16.4 µM [inhibitor, single point]"}
{"smiles": "O=C(N/N=C/c1ccc([N+](=O)[O-])o1)c1cc(-c2ccncc2)nc2ccccc12", "Potency": "inconclusive: 3.26 µM [inhibitor, full curve]"}
{"smiles": "CCOc1ccccc1NC(=O)Cn1nnc(C(=O)NCc2ccc3c(c2)OCO3)c1N", "Potency": "inconclusive: 5.17 µM [inhibitor, single point]"}
{"smiles": "CCc1nc2ccccc2c(C(=O)OCC(=O)NC2CC2)c1C", "Potency": "inactive"}
{"smiles": "Cc1cc(C)n2nc(SCC(=O)N(CCC#N)c3ccccc3F)nc2n1", "Potency": "inactive"}
{"smiles": "CN1C2CCC1/C(=C\\c1ccc(F)cc1)C(=O)/C2=C/c1ccc(F)cc1", "Potency": "active: 18.4 µM"}
{"smiles": "Cc1nn(-c2ccc(Cl)cc2)c2sc(C(=O)N3CCN(c4ccccn4)CC3)cc12", "Potency": "inconclusive: 4.11 µM [inhibitor, single point]"}
{"smiles": "CCCCCCC(NC(=O)c1ccc(C)cc1)C(=O)O", "note": "(stereo not drawn)", "Potency": "inconclusive: 29.1 µM [activator, partial curve, poor fit]"}
{"smiles": "Cc1[nH]n(C2=NCCS2)c(=O)c1N=Nc1cccc(C(F)(F)F)c1", "Potency": "active: 2.91 µM"}
{"smiles": "CCOc1ccc(CN(C)CC(=O)Nc2ccc([N+](=O)[O-])cc2Cl)cc1", "Potency": "inconclusive: 32.6 µM [inhibitor, single point]"}
{"smiles": "CC(C)CCNC(=O)CN(C(=O)CCC(=O)Nc1ccccn1)c1ccc2c(c1)OCCO2", "Potency": "inconclusive: 16.4 µM [activator, partial curve]"}
{"smiles": "CCc1c2ccccc2nn1-c1ccccc1C(=O)C(C)=O", "Potency": "inactive"}
{"smiles": "CN(C(=O)COc1coc(CN2CCN(c3ccccc3)CC2)cc1=O)c1ccccc1", "Potency": "inactive"}
{"smiles": "O=C(CSc1ncccn1)Nc1ccc2c(c1)CCC2", "Potency": "inconclusive: 29.1 µM [activator, single point]"}
{"smiles": "COc1ccc2cnn(-c3ccc(OC(F)(F)F)cc3)c(=O)c2c1OC", "Potency": "inconclusive: 20.6 µM [activator, single point]"}
{"smiles": "COc1cc(-c2noc(-c3cccs3)n2)cc(OC)c1OC", "Potency": "active: 23.1 µM"}
{"smiles": "Cc1ccc(C(=O)c2cnc3ccccc3c2-c2ccccc2)cc1", "Potency": "inconclusive: 11.2 µM [inhibitor, partial curve, poor fit]"}
{"smiles": "CCn1c(SCC(=O)Nc2ccc(C(C)=O)cc2)nc2nc3c(cc2c1=O)COC(C)(C)C3", "Potency": "inconclusive: 2.31 µM [inhibitor, single point]"}
{"smiles": "CCOCCN1CCN(c2c3c(nc4cc(-c5ccc(F)cc5)nn24)CCC3)CC1", "Potency": "inconclusive: 2.59 µM [inhibitor, partial curve, poor fit]"}
{"smiles": "CC1(C)CC(N2CCN(c3ccccc3)CC2)=CC(=[N+]2CCCC2)C1", "Potency": "inconclusive: 1.3 µM [inhibitor, full curve, poor fit]"}
{"smiles": "C/C(=C\\C(=O)c1ccccc1)Nc1ccc(O)cc1", "Potency": "inconclusive: 6.51 µM [activator, partial curve]"}
{"smiles": "O=C(CCNC(=O)c1ccccc1Cl)Nc1cc(C(F)(F)F)ccc1N1CCCC1", "Potency": "inconclusive: 20.6 µM [inhibitor, partial curve]"}
{"smiles": "Cc1cc(C(=O)COc2ccccc2C#N)c(C)n1C1CC1", "Potency": "inconclusive: 29.1 µM [activator, single point]"}
{"smiles": "C=C(C)CNC(=S)N/N=C(\\C)c1ccc(Cl)s1", "Potency": "inactive"}
{"smiles": "O=C(NCc1ccccc1F)C1CCCN(C(=O)Nc2ccc(F)cc2)C1", "note": "(stereo not drawn)", "Potency": "inconclusive: 29.1 µM [inhibitor, single point]"}
{"smiles": "O=C(NCCC(=O)N1CCCCCCC1)c1ccc(Cl)cc1", "Potency": "inconclusive: 8.2 µM [activator, partial curve, poor fit]"}
{"smiles": "CC(=O)Nc1ccc2oc(-c3cc(F)c(F)cc3Cl)nc2c1", "Potency": "inconclusive: 1.64 µM [activator, full curve]"}
{"smiles": "Cc1cccc(NC(=O)c2ccc(S(=O)(=O)N3CCCCCC3)cc2)n1", "Potency": "inconclusive: 25.9 µM [inhibitor, single point]"}
{"smiles": "CCC(C)c1ccc(NC(=O)CC(C)=O)cc1", "note": "(stereo not drawn)", "Potency": "inconclusive: 20.6 µM [activator, single point]"}
{"smiles": "CCn1c(=S)sc2c(=O)n(CC(=O)Nc3ccc(Cl)cc3)c(C)nc21", "Potency": "inactive"}
{"smiles": "C[C@H]1C(=O)N(C)CCN1Cc1cn(C)nc1-c1ccc(Oc2ccccc2)cc1", "Potency": "inconclusive: 23.1 µM [activator, partial curve, poor fit]"}
{"smiles": "CCOC(=O)c1cnn(-c2ccc(C(C)C)cc2)c1NC(=O)C1CCC1", "Potency": "inconclusive: 5.8 µM [activator, full curve, poor fit]"}
{"smiles": "O=C(Nc1nccs1)c1c(O)c2c([nH]c1=O)CCCC2", "Potency": "inconclusive: 1.64 µM [activator, full curve]"}
{"smiles": "CCC(C(=O)Nc1ccc2c(c1)OCCO2)n1c(=O)[nH]c2ccccc2c1=O", "note": "(stereo not drawn)", "Potency": "inconclusive: 29.1 µM [activator, single point]"}
{"smiles": "COc1ccc(NS(=O)(=O)c2cc(NC(=O)c3cccc(OCc4c(C)noc4C)c3)ccc2OC)cc1", "Potency": "inconclusive: 7.31 µM [inhibitor, partial curve, poor fit]"}
{"smiles": "c1ccc2c(c1)CCN(c1ncnc3c1[nH]c1ccccc13)C2", "Potency": "active: 9.2 µM"}
{"smiles": "CN(CC(=O)Nc1ccc(S(=O)(=O)N2CCOCC2)cc1)Cc1ccc(F)cc1", "Potency": "inactive"}
{"smiles": "CCCOc1ccc(CSc2n[nH]c(C)n2)cc1", "Potency": "inconclusive: 4.61 µM [activator, single point]"}
{"smiles": "Nc1ccc(O)cc1C(=O)OCC(=O)c1ccc(C2CCCCC2)cc1", "Potency": "inconclusive: 29.1 µM [activator, single point]"}
{"smiles": "Cc1ccc(NC(=O)CSc2nc3nc(C)c(Br)cc3[nH]2)cc1F", "Potency": "inconclusive: 1.03 µM [inhibitor, full curve]"}
{"smiles": "N#Cc1c(N)nc2c(c1-c1ccccc1)CCC2", "Potency": "inconclusive: 20.6 µM [activator, single point]"}
{"smiles": "COc1ccccc1CNC(=O)CCC1N=C2c3ccccc3N=C(SCC(=O)NCC3CCCO3)N2C1=O", "note": "(stereo not drawn)", "Potency": "inactive"}
{"smiles": "CCC(C)NC(=O)c1cc(C)no1", "note": "(stereo not drawn)", "Potency": "inconclusive: 18.4 µM [activator, single point]"}
{"smiles": "Cc1ccc(C(=O)NCCc2ccncc2)cc1", "Potency": "inconclusive: 10 µM [activator, partial curve, poor fit]"}
{"smiles": "COc1ccc(-c2noc(CN(C)C(=O)CCN3C(=O)[C@H]4CC=CC[C@H]4C3=O)n2)cc1", "Potency": "inconclusive: 2.91 µM [inhibitor, partial curve, poor fit]"}
